# Experimental data as given in PMC5572376.
# Protein sequences, listed by entry. Tags and fused reporters are not part of them.
# UniProt P0A031: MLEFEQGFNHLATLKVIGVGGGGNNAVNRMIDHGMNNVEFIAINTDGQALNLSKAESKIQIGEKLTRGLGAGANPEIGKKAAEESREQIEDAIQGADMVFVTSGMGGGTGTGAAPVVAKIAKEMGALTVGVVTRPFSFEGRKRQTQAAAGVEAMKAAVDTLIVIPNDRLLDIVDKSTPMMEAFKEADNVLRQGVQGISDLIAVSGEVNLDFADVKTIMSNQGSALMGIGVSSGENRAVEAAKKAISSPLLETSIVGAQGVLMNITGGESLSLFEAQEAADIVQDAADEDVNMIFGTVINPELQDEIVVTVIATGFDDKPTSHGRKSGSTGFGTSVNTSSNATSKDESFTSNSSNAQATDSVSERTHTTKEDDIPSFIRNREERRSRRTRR
# UniProt P99110: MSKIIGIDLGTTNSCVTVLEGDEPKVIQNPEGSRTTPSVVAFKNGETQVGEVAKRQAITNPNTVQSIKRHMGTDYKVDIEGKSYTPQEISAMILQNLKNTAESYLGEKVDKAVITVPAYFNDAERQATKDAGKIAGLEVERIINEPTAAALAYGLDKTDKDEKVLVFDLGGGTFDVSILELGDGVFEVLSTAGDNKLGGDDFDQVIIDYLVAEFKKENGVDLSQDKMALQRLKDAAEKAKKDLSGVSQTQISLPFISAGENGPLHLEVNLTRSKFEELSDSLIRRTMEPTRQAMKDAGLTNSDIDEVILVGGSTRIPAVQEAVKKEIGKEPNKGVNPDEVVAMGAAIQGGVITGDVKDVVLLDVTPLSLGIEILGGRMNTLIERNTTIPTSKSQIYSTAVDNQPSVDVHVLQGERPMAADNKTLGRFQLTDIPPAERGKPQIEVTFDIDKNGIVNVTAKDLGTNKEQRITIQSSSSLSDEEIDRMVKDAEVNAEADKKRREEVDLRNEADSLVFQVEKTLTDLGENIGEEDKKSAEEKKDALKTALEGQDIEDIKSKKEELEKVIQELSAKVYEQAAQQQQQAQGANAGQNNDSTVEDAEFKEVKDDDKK
# No constants are given. Whether binding was seen depends on the method and setting. Binding seen in cells or lysates may run through a third protein. Here binding means that the protein was enriched with, or labelled near, the bait; the list need not be complete.
# Molecular target: FtsZ-GFP (S. aureus) (UniProt P0A031)
# Assay: affinity purification with mass spectrometry; FtsZ-GFP captured on anti-GFP M-270 Epoxy Dynabeads from cryogenically lysed S. aureus cells cross-linked with 1% formaldehyde; SDS-PAGE, LC-MS-MS; GFP-only strain SA112 as control
substance,measurement,value
DnaK (from UniProt P99110 1-610),binding,binds
